Measured values from publication PMC11327024.
These are yes or no findings as the source states them, for the method shown. In cells and extracts the contact can be indirect. Some results given as binding are weak or reduced against the parent protein; the word gives no strength.

Sequences of proteins named here, by UniProt entry; tags and fusion partners are left off.
UniProt P11387: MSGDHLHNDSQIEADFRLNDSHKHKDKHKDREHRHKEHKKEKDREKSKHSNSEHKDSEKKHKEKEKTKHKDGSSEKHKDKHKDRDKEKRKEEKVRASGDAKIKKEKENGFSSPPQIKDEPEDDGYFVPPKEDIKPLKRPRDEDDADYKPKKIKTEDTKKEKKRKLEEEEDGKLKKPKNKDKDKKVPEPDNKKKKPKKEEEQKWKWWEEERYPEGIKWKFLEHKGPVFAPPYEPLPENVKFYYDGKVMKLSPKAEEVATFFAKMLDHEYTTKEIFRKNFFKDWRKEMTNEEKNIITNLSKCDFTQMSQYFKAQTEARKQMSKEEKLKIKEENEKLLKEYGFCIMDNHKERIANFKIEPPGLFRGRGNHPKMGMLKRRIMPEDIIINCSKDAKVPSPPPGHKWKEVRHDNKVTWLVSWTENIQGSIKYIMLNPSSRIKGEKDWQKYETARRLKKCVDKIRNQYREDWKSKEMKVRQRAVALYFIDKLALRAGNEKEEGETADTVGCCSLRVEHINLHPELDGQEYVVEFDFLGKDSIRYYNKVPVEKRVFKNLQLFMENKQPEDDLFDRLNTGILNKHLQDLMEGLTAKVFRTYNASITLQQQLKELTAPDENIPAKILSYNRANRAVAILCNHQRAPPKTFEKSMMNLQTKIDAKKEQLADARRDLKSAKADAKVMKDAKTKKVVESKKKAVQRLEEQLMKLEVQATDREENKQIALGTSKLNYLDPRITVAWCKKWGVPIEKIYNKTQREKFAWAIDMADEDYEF
UniProt Q8N884: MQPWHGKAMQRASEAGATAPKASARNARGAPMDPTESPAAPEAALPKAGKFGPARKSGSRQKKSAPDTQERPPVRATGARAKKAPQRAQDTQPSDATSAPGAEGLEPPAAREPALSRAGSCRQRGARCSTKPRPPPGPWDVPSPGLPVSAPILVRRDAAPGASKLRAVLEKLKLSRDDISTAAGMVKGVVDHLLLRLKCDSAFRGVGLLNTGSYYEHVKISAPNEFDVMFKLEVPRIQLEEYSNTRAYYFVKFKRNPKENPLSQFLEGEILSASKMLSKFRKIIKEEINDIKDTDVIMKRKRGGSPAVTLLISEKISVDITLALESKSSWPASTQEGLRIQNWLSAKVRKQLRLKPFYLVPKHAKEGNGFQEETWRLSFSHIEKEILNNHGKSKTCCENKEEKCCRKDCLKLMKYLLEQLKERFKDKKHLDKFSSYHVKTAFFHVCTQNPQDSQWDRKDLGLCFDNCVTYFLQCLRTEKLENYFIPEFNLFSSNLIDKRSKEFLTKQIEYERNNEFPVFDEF

What was measured:
[1] = molecular target: Flag-TOP1 (UniProt P11387); test: co-IP; Flag-TOP1 and HA-cGAS co-transfected into CC cells; lysate, protein A&G sepharose beads, Western blot
[2] = molecular target: topoisomerase I (TOP1), endogenous (human (endogenous in CC cells)) (UniProt P11387); test: co-IP; endogenous proteins in CC cells; IP lysis buffer, specific antibody overnight, protein A&G sepharose beads 2 h at 4°C, Western blot; IgG control group

| binding [1] | binding [2] | Substance |
| --- | --- | --- |
| binds |  | HA-cGAS (from UniProt Q8N884 1-522) |
|  | binds | cyclic GMP-AMP synthase (cGAS), endogenous (from UniProt Q8N884 1-522) |
